No constants are given. Whether binding was seen depends on the method and setting. In cells and extracts the contact can be indirect. Some results given as binding are weak or reduced against the parent protein; the word gives no strength.
Molecular target: T1, CTCF^HALO (CCCTC-binding factor with a C-terminal HALO domain, homozygous knock-in) (mouse (endogenous in E14-derived ES and NS cells)) (UniProt Q61164)
T1 sequence: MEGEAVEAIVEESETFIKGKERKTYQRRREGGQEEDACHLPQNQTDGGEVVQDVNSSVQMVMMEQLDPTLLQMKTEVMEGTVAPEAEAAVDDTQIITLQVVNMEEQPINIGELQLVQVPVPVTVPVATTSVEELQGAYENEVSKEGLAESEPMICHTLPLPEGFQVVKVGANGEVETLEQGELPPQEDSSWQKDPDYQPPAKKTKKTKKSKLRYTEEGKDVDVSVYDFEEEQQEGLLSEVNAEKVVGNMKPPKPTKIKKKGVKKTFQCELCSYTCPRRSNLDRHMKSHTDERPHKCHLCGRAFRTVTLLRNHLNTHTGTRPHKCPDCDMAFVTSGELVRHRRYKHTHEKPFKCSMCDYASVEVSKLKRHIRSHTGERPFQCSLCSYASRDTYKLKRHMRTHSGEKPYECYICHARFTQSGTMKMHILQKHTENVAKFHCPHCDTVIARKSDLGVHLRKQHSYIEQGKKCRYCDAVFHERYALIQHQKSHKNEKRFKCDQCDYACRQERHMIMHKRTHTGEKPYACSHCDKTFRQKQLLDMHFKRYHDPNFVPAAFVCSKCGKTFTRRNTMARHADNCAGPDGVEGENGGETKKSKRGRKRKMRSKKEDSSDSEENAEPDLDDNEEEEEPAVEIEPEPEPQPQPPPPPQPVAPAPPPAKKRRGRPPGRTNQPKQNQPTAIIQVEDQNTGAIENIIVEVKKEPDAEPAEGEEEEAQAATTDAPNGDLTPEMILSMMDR
Assay: proximity ligation; Duolink PLA in PFA-fixed, Triton-permeabilised CTCF^HALO ES and NS cells (also wild-type, Pantr1-/- and Neat1-/- NS cells); puncta counted per nucleus

B1: Non-POU Domain Containing Octamer Binding (Nono) (protein, UniProt Q99K48 1-473)
chain: MQSNKAFNLEKQNHTPRKHHQHHHQQHHQQQQQQQQQQPPPPIPANGQQASSQNEGLTIDLKNFRKPGEKTFTQRSRLFVGNLPPDITEEEMRKLFEKYGKAGEVFIHKDKGFGFIRLETRTLAEIAKVELDNMPLRGKQLRVRFACHSASLTVRNLPQYVSNELLEEAFSVFGQVERAVVIVDDRGRPSGKGIVEFSGKPAARKALDRCSEGSFLLTTFPRPVTVEPMDQLDDEEGLPEKLVIKNQQFHKEREQPPRFAQPGSFEYEYAMRWKALIEMEKQQQDQVDRNIKEAREKLEMEMEAARHEHQVMLMRQDLMRRQEELRRMEELHNQEVQKRKQLELRQEEERRRREEEMRRQQEEMMRRQQEGFKGTFPDAREQEIRMGQMAMGGAMGINNRGAMPPAPVPPGTPAPPGPATMMPDGTLGLTPPTTERFGQAATMEGIGAIGGTPPAFNRPAPGAEFAPNKRRRY
**Q.** With B1 as the binder, how does the binding read?
**A.** Its binding is “binds”.
